The other results are listed elsewhere or left out. The main result of the screen is listed elsewhere. These columns were measured beside it and carry no call. The list favours compounds with an active or inconclusive main result. Potencies come from curve fits of mixed quality, noted in brackets.

This experiment can be described thus: IkB Signaling. The following applies: ABC-DLBCL IkBa-CBG/CBR dual luciferase ratio (green luciferase fused to IkBa over red control in OCI-Ly3 lymphoma cells), 4 h; measured here: control luc red channel unless noted. The essentials: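 Luminescence ratio of IκBα-fused green versus native red beetle luciferase in OCI-Ly3 cells, 4 h post-doxycycline with compound; red signal alone, scaled from basal (0%) to zero light (-100%), flagged nonspecific or cytotoxic effects.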
Consider `Cc1ccc(C)c(CN2CCCN(Cc3cc(C)ccc3C)S2(=O)=O)c1`, for which the AC50 was 39.8 µM [falling, single point].
On to `CCc1nc2ccccc2n1CCCCOc1ccccc1C`, for which the AC50 was 25.1 µM [falling, single point].
Next, `COc1cc2cc(C(c3nnnn3C3CCCC3)N(C)C3CCCCC3)c(=O)[nH]c2cc1OC` (centres undefined): 31.6 µM [falling, single point] [measured here: IkB-luc green channel].
As for `CC(Nc1nc(N2CCCC2)nc2ccccc12)c1ccccc1` (centres undefined), the AC50 was 15.8 µM [falling, partial curve].
Next, `COc1cc2c(cc1NC(=O)CN(C)Cc1nc3ccccc3c(=O)[nH]1)oc1ccccc12`: 12.6 µM [falling, partial curve]; `CCCOc1cccc(C(=O)Nc2ccc(-c3nc4ccccc4s3)c(Cl)c2)c1`: 12.6 µM [falling, partial curve].
As to `CCN1C(C(=O)c2ccccc2)=C(OC(=O)C(C)C)c2ccccc2S1(=O)=O`, the AC50 was 15.8 µM [falling, partial curve].
Next, `CCc1ccccc1NC(=O)Cn1c(=O)nc(-c2ccccc2)c2ccccc21`: 1.58 µM [falling, full curve, poor fit].
Turning to `Cc1ccccc1NC(=O)N1CCCC(c2nc(-c3ccc(C(C)C)cc3)no2)C1` (centres undefined), the AC50 is 0.794 µM [falling, full curve].
Consider `CCn1c2c(c(=O)n3ncc(C(=O)Nc4cccc(Cl)c4C)c13)CN(Cc1ccc(OC)cc1)CC2`, for which the AC50 was 25.1 µM [falling, single point].
As to `CCCC(O)c1nc2ccccc2n1CCCCOc1ccc(OC)cc1` (centres undefined), the half-maximal activity concentration (AC50) is 0.158 µM [falling, full curve].
Next, `O=S1(=O)Nc2c(ccc3cccnc23)-c2ccccc21`: 1 µM [rising, partial curve] [measured here: IkB-luc green channel]; `Cc1cc(C)cc(NC(=O)CSc2nncn3c2cc2occc23)c1`: 10 µM [falling, partial curve].
Next, `O=C(CC1N=C2c3ccccc3N=C(SCc3ccc(F)cc3)N2C1=O)NCc1cccs1` (centres undefined): 10 µM [rising, partial curve, poor fit]; `COC(=O)c1nnn(-c2nonc2N)c1CSc1nc2ccccc2s1`: 39.8 µM [falling, single point].
Next, `COc1cccc(CNC(=O)Cn2cc3c(n2)-c2c(oc(C(=O)N4CCCC4)c2C)CC3)c1`: 15.8 µM [falling, partial curve]; `CCc1ccc(NC(=O)Cn2ncc3c4ccccc4n(C)c3c2=O)cc1`: 10 µM [falling, single point].
`CCCCn1cc(S(=O)(=O)c2ccc(OC)cc2)c(=O)c2cc(F)c(F)cc21`: the AC50 was 3.98 µM [falling, partial curve, poor fit].
Next, `Clc1cccc(-c2csc(-c3nc(-c4ccc(Br)s4)cs3)n2)c1`: 15.8 µM [rising, partial curve]; `CCOc1ccc(NC(=O)c2cc(S(=O)(=O)NC3CCCC3)ccc2F)cc1`: 12.6 µM [falling, partial curve].
On to `CCc1ccc(NC(=O)CSc2nc(-c3ccccc3)c(C#N)c(=O)[nH]2)cc1`, for which the AC50 is 10 µM [falling, partial curve].
Next, `Cc1ccc(OCc2nc(-c3ccc(C(=O)N4CCN(c5ccc(Cl)cc5)CC4)cc3)oc2C)cc1`: 20 µM [falling, partial curve].
Take `CC(C)CCNC(=O)CSc1c2c(nc3ccc(Cl)cc13)CCCC2`: the AC50 was 15.8 µM [falling, partial curve].
Next, `CC(C)Oc1ccc(CNC(=O)Cn2c(=O)oc3ccccc32)cc1`: 25.1 µM [falling, single point]; `Cc1cccc(-c2nc(SCC(=O)Nc3cccc(C(F)(F)F)c3)n3[nH]c(=O)cc3n2)c1`: 25.1 µM [falling, single point]; `CC(C)(C)c1nnc2sc(SCC(=O)c3cccs3)nn2c1=O`: 0.398 µM [falling, full curve].
Take `CCOc1ccc(CNC(=O)C2CCCN(S(=O)(=O)c3ccc4c(c3)CCCC(=O)N4)C2)cc1` (centres undefined): the AC50 was 39.8 µM [falling, single point].
Next, `Cc1nn(Cc2ccc(Cl)cc2)c(C)c1NC(=O)c1noc2c1CCc1ccccc1-2`: 5.01 µM [falling, full curve].
On to `CCN(CC)S(=O)(=O)c1ccc(NC(=O)CCc2c(C)nc3cc(-c4ccc(Cl)cc4)nn3c2C)cc1`, for which the AC50 was 0.0631 µM [falling, full curve].
On to `COc1ccc(Cl)cc1NC(=O)CSc1ccc(-c2sc(C)nc2C)nn1`, for which the concentration at half-maximal activity (AC50) was 39.8 µM [falling, single point].
Regarding `Nc1ccc2cc3ccccc3cc2c1`, the AC50 is 3.16 µM [rising, full curve] [measured here: IkB-luc green channel].
Next, `CCOC(=O)c1cc2c(=O)n3ccccc3nc2n(CCCOC)c1=NC(=O)C(C)(C)Oc1ccc(Cl)cc1`: 20 µM [falling, partial curve].
In the case of `CCCn1c(NC(=O)C2CCN(S(=O)(=O)c3cccs3)CC2)nc2ccccc21`, the AC50 was 15.8 µM [falling, partial curve].
Take `CCOC(=O)c1c(C)[nH]c(CCC(=O)NCCCN2CCN(c3cc(C)ccc3C)CC2)c1C`: the AC50 was 39.8 µM [falling, single point].
Next, `Cc1ccc(C)c(NC(=O)CSc2ncc3c(n2)-c2ccc(Cl)cc2N(C)S3(=O)=O)c1`: 31.6 µM [rising, single point] [measured here: IkB-luc green channel]; `O=C(CCSCc1ccccc1Cl)N1CCN(c2cccc(Cl)c2)CC1`: 31.6 µM [falling, partial curve]; `N#CC1=C(N)OC(c2ccccc2)=C(C#N)C1c1ccc2c(c1)OCO2` (centres undefined): 0.794 µM [falling, partial curve].
For `CCn1nc(-c2ccccc2)c(-c2ccccc2)c(C(=O)Nc2nc(C)c(C(=O)N(C)C)s2)c1=O`, the AC50 is 31.6 µM [falling, single point].
Next, `CCc1nc2cccnc2n1-c1ccc(CC(=O)Nc2ccc(C)cc2)cc1`: 39.8 µM [falling, single point].

The AC50 is the concentration at which the activity in the assay is half-maximal.

The record behind these values is PubChem BioAssay AID445 (National Center for Advancing Translational Sciences (NCATS), 2006).
